The labels stand for the following.
B1: P283HR7P1368_B12 (designed binder)
chain: LPAPKNLVVSRVTEDSARLSWTAPDAAFDSFGIGYVEFTRAGEAISLSVPGSERSYDLTGLKPGTEYHVVIIGVKGGEPSHPLGAPFTT
B2: P283HR7P1368_F6 (designed binder)
chain: B1 chain with V36I, F38W, T39V, R40H, A41R, S48H, H68V, V70A, I72V, H81T
B3: P283HR7P1368_D1 (designed binder)
chain: B1 chain with G34S, V36Y, F38W, T39A, R40P, A41N, S46Q
B4: P283HR7P1368_G11 (designed binder)
chain: B1 chain with V36A, F38P, T39A, R40V, A41T, H68W, E78I, P79N, H81Y, P86S
B5: P283HR7P1368_H1 (designed binder)
chain: B1 chain with G34A, V36I, F38T, T39A, A41W, S48T, H68N, E78T
B6: P283HR7P1368_G1 (designed binder)
chain: LPAPKNLVVSRVTEDSARLSWTAPDAAFDSFLITYWEIEPEGEAIFLGVPGSERSYDLTGLKPGTEYRVQINGVKGGTISYPLFAGFTT
B7: P283HR7P1368_G10 (designed binder)
chain: LPAPKNLVVSRVTEDSARLSWTAPDAAFDSFGIAYVEWWHRGEAISLPVPGSERSYDLTGLKPGTEYWVTILGVKGGIISTPLGASFTT
B8: P283GR7P1367_H8 (designed binder)
chain: LPAPKNLVVSRVTEDSARLSWTAPDAAFDSFSINYWEEDPAGEAIVLTVPGSERSYDLTGLKPGTEYRVLIGGVKGGHGSLPLSAIFTT
B9: P283HR7P1368_H8 (designed binder)
chain: LPAPKNLVVSRVTEDSARLSWTAPDAAFDSFGITYLDPRNGEAISLNVPGSERSYDLTGLKPGTEYWVVIIGVKGGINSYPLGASFTT
B10: P282DR9P1359_A7 (designed binder)
chain: LPAPKNLVVSRVTEDSARLSWTAPDAAFDSFRIGYPELEKLGYGEAIVLTVPGSERSYDLTGLKPGTEYWVIIWGVKGGENSWPLSAIFTT
B11: P283GR7P1367_B7 (designed binder)
chain: LPAPKNLVVSRVTEDSARLSWTAPDAAFDSFDIAYPEWPTDGEAIVLTVPGSERSYDLTGLKPGTEYFVVIYGVKGGHWSYPLSAIFTT
B12: P283GR7P1367_F5 (designed binder)
chain: B11 chain with V70I, H78A, W79L, Y81R
B13: P282CR9P1358_F5 (designed binder)
chain: B11 chain with D32W, A34S, T40P, V70I, Y72W, H78E, W79T, Y81A
B14: P282DR9P1359_A12 (designed binder)
chain: B11 chain with D25E, D32Q, T40P, D41P, G42R, Y72Q, H78E, W79I, Y81W
B15: P283GR7P1367_B9 (designed binder)
chain: B11 chain with D32E, A34W, P36H, W38Y, P39H, T40P, D41R, G51S, F68D, Y72S
B16: P282DR9P1359_E11 (designed binder)
chain: B11 chain with D32Y, A34S, T40P, D41V, F68W, V70I, H78A, W79I, Y81T
B17: P283GR7P1367_H9 (designed binder)
chain: B11 chain with H78G, W79R, Y81A
B18: P282DR9P1359_C10 (designed binder)
chain: B11 chain with D32A, A34V, F68A, V70F, Y72W, H78N, W79Q, Y81W
B19: P282DR9P1359_D12 (designed binder)
chain: B11 chain with D32R, W38T, P39A, D41W, V70I, H78F, W79E, Y81A
B20: P283GR7P1367_H2 (designed binder)
chain: B11 chain with H78G, W79R
B21: P282CR9P1358_C5 (designed binder)
chain: B11 chain with D32L, T40D, D41S, F68A, V70F, Y72W, H78P, W79L, Y81H
B22: P283GR7P1367_E5 (designed binder)
chain: B11 chain with D32E, A34W, P36H, W38Y, P39H, T40P, D41R, F68D, Y72S
B23: P282CR9P1358_D10 (designed binder)
chain: B11 chain with D32L, A34S, W38Y, T40P, D41P, V70I, Y72F, H78D, W79T, Y81W
B24: P282DR9P1359_A8 (designed binder)
chain: B11 chain with D32R, T40V, D41Q, V70I, H78E, W79L, Y81P
B25: P282DR9P1359_C11 (designed binder)
chain: B11 chain with D32K, W38F, T40P, D41P, F68Y, V70I, Y72I, H78T, W79D, Y81W
B26: P282DR9P1359_C12 (designed binder)
chain: B11 chain with D32Y, A34S, T40V, D41P, F68W, H78A, W79L, Y81V
B27: P282CR9P1358_C2 (designed binder)
chain: B11 chain with D32K, T40S, D41N, F68A, V70F, Y72W, H78A, W79F, Y81N
B28: P283GR7P1367_C9 (designed binder)
chain: B11 chain with D32L, A34G, T40L, D41G, F68W, V70I, H78E, W79Y, Y81D
B29: P282CR9P1358_F11 (designed binder)
chain: LPAPKNLVVSRVTEDSARLSWTAPDAAFDSFLIAYPEWPIFEGEAIVLTVPGSERSYDLTGLKPGTEYFVVIYGVKGGEQSSPLSAIFTT
B30: P282DR9P1359_C5 (designed binder)
chain: B29 chain with L32W, A34T, I40D, F41P, E42G, Q80I, S81Y
B31: P282DR9P1359_B2 (designed binder)
chain: LPAPKNLVVSRVTEDSARLSWTAPDAAFDSFWIAYTEWPIPYEEAGQEGEAIVLTVPGSERSYDLTGLKPGTEYWVSIYGVKGGPNSQPLSAIFTT
B32: P283HR7P1368_D4 (designed binder)
chain: LPAPKNLVVSRVTEDSARLSWTAPDAAFDSFAIWCVEPIPEGEAIPLFVPGSERSYDLTGLKPGTEYRVGIRGVKGGTFSSPLAAPFTT
B33: P283GR7P1367_G8 (designed binder)
chain: LPAPKNLVVSRVTEDSARLSWTAPDAAFDSFYIAYPEYVWGGEATSLGEAIVLTVPGSERSYDLTGLKPGTEYFVVITGVKGGLGSYPLSAIFTT
B34: P283HR7P1368_C3 (designed binder)
chain: LPAPKNLVVSRVTEDSARLSWTAPDAAFDSFGIGYAEPAVTGEAISLSVPGSKRSYDLTGLKPGTEYWVVIIGVKGGINSYPLGASFTT
B35: P283HR7P1368_D2 (designed binder)
chain: B34 chain with D29N, K53E
B36: P282DR9P1359_E2 (designed binder)
chain: LPAPKNLVVSRVTEDSARLSWTAPDAAFDSFNIFYPEIVTWGEAIVLTVPGSERSYDLTGLKPGTEYWVNIVGVKGGDNSWPLSAIFTT
B37: P283HR7P1368_F10 (designed binder)
chain: LPAPKNLVVSRVTEDSARLSWTAPDAAFDSFYIPYRESEFRGEAIALPVPGSERSYDLTGLKPGTKYRVIIIGVKGGEFSQPLGAIFTT
B38: P283HR7P1368_A10 (designed binder)
chain: LPAPKNLVVSRVTEDSARLSWTAPDAAFDSFWIFYLEPFPRGEAIPLEVPGSERSYDLTGLKPGTEYSVDIRGVKGGDHSDPLWAYFTT
B39: P282AR9P1356_A4 (designed binder)
chain: LPAPKNLVVSRVTEDSARLSWVKRPNSFDSFLIQYQESEKVGEAIVLTVPGSERSYDLTGLKPGTEYTVSIYGVDVVDYEGRPRWSNPLSAIFTT
B40: P282AR9P1356_A6 (designed binder)
chain: B39 chain with V22S, R24T, P25D, N26S, D78Y, Y79I, R82N, R84V, W85F

The chains behind the UniProt entries cited, without tags or fusion partners. Residues count along the entry.
UniProt P01732, residues 22-182: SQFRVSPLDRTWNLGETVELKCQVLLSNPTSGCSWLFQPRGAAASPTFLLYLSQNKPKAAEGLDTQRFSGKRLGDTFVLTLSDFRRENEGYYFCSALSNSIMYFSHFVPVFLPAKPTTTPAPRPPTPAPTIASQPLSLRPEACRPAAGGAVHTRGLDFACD

Residue numbers refer to the chain shown, from its start. No constants are given. Whether binding was seen depends on the method and setting. Some binding calls cover weakened binding; strength is not graded here.

The target of the test is recombinant human CD8 alpha fused to Fc fragment of human IgG1 (human) (UniProt P01732). Briefly: ELISA, biotinylated CD8W7 or CD8W13. Background: ELISA stands for enzyme-linked immunosorbent assay.
Turning to B1, the binding result is given as “binds”.
As to B2, the binding entry is given as “binds”.
As to B3, the binding entry is recorded as “binds”.
For B4, the binding entry was “binds”.
B5: the binding result is “binds”.
Take B6: the binding result is listed as “binds”.
For the molecule B7, the binding result is reported as “binds”.
In the case of B8, the binding result is “binds”.
On to B9, for which the binding result is given as “binds”.
With B10, the binding result is “binds”.
As for B11, the binding result is listed as “binds”.
With B12, the binding result is on record as “binds”.
The entry for B13 is “binds”.
The entry for B14 is “binds”; for B15 it is “binds”; for B16 it is “binds”.
As to B17, the binding result was “binds”.
For B18, the binding result is reported as “binds”.
Consider B19, for which the binding result is “binds”.
Take B20: the binding entry is “binds”.
Turning to B21, the binding result is listed as “binds”.
For B22, the binding result is on record as “binds”.
On to B23, for which the binding entry was “binds”.
Turning to B24, the binding entry was “binds”.
B25: the binding entry was “binds”.
Take B26: the binding result is given as “binds”.
As to B27, the binding result is reported as “binds”.
For B28, the binding entry is listed as “binds”.
Turning to B29, the binding result is “binds”.
As to B30, the binding entry is on record as “binds”.
As to B31, the binding result is “binds”.
Turning to B32, the binding entry is “binds”.
Next, B33: “binds”; B34: “binds”; B35: “binds”.
In the case of B36, the binding entry was “binds”.
Take B37: the binding entry is “binds”.
On to B38, for which the binding entry is recorded as “binds”.
The entry for B39 is “binds”; for B40 it is “binds”.

These data come from US20210032312A1.
